According to EP0980526B1, “INHIBITORS OF NUCLEAR PROTEIN/NUCLEAR RECEPTOR INTERACTION” (IMPERIAL CANCER RESEARCH TECHNOLOGY LIMITED, priority 1997, dated 1998):
Results are given in words; binding and its absence hold for the method and conditions named. Binding seen in cells or lysates may run through a third protein. Some binding calls cover weakened binding; strength is not graded here.

Chains of the proteins cited; added tags and fusions are not shown. Residues count along the entry.
UniProt P19785, residues 313-599: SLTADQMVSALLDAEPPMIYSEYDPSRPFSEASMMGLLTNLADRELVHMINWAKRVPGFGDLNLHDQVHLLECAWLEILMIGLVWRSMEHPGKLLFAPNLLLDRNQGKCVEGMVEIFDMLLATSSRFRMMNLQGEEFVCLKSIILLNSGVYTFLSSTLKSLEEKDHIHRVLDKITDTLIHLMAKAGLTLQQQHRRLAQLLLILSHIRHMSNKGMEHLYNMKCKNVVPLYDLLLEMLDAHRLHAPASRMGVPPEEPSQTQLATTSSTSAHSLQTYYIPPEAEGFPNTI
UniProt Q15788: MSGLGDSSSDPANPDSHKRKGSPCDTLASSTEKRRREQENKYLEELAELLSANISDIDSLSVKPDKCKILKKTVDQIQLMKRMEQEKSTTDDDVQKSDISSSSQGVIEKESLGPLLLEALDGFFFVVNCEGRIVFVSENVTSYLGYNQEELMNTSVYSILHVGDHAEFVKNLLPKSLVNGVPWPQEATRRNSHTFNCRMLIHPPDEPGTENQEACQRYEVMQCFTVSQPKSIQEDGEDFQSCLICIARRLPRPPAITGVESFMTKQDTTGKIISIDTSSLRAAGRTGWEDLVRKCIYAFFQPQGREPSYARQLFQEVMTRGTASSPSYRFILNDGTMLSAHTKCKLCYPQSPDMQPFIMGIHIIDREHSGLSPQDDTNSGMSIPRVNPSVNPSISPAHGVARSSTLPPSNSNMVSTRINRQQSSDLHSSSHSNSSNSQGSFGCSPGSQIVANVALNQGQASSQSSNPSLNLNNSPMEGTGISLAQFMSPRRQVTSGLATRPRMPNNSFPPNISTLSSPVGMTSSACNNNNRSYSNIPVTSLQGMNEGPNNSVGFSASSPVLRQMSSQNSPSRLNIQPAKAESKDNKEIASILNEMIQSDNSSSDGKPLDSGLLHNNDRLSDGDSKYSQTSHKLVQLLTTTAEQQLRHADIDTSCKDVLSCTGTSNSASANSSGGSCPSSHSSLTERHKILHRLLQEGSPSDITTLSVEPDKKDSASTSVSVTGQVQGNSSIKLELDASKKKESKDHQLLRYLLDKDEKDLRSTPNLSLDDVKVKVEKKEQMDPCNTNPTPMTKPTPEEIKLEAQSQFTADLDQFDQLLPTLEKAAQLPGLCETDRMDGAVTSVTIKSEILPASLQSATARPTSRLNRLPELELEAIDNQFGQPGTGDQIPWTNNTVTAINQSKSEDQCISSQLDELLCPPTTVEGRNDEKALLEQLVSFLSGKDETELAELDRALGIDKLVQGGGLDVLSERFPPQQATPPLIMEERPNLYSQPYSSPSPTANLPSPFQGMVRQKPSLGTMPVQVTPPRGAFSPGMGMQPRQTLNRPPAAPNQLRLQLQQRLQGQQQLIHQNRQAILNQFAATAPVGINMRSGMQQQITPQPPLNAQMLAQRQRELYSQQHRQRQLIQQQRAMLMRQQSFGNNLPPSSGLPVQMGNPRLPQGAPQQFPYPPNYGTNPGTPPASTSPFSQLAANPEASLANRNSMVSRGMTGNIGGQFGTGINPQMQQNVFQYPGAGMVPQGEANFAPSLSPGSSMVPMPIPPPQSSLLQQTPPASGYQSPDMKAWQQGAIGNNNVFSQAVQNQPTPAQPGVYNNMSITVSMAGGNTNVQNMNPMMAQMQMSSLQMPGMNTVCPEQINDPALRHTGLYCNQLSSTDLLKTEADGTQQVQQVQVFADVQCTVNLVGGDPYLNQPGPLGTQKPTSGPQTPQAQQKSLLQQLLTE

Target: GST-AF2 (ligand binding domain of the mouse estrogen receptor fused to glutathione-S-transferase) (mouse) (UniProt P19785)
Test: GST pulldown of [35S]-labelled in vitro translated protein, +/- 10^-6 M E2

“wild type SRC1a (human, in vitro translated) (from UniProt Q15788 1-1441)” was tested, and the binding was “binds”.
